Values from PubChem BioAssay AID1224826 (NIAID, 2016)

- Test: 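Regulators of Tlr4 signalling leading to Tnf-alpha expression in macrophages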 (primary screen)
- System: RAW264.7 G9 macrophages from mouse bearing reporters for p65 (GFP) and the Tnf promoter (mCherry)
- Knock-down reagent: siRNA pool against mouse genes, 100 nM
- Time to read-out: 16 h of LPS stimulation, after 2 days of siRNA transfection
- Challenge: bacterial lipopolysaccharide (Salmonella minnesota R595), 10 ng/ml
- Read-out: 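Imaged Tnf reporter mCherry in nuclei, minus background, normalised per plate to the median and expressed as robust z-scores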
- Reading the numbers: Tnf reporter robust z-score: higher = stronger Tnf promoter reporter signal after LPS; Tnf reporter intensity: higher = stronger Tnf promoter reporter signal
- Call rule: 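a well counts as active at a score of -1.3 or below (Tlr4 knock-down control median) or above 3 (raised signal); controls and wells holding fewer than 50 cells are excluded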
- Calls: active = Tnf reporter clearly lowered or raised; inactive = no clear change in Tnf reporter
The deposit covers about 17,000 reagents; shown is a random part of them. Of all reagents, about 1,110 (6.6%) got an active call. 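Active means lowered or raised reporter signal; replicate intensities are raw and not normalised per plate.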 Entries without a mark were called inactive.

target	Tnf reporter robust z-score	fewer than 50 cells in well	Tnf reporter intensity, replicate 1	Tnf reporter intensity, replicate 2
Upk3b	1.81	enough cells in well	203	134
Bnipl	0.56	enough cells in well	0	196
Zfp235		fewer than 50 cells per well; well left out of calls	34.4	49.4
Farp2	1.56	enough cells in well	336	368
Gramd2b	0.56	enough cells in well	225	213
Taar8a	0.68	enough cells in well	265	361
Wdr20		fewer than 50 cells per well; well left out of calls	124	41.6
Cd300c	-0.4	enough cells in well	197	195
Plch1	-0.77	enough cells in well	173	81.2
Or2p2	1.1	enough cells in well	356	126
Marcksl1	-0.84	enough cells in well	158	172
Ppp1r9a	0.69	enough cells in well	319	224
Jmjd8	0.18	enough cells in well	252	78.5
Cyb5r1	-1.06	enough cells in well	186	92.9
Gprin1		fewer than 50 cells per well; well left out of calls	98.1	71.8

Next part, starting with the last 3 of the part before.
target	Tnf reporter robust z-score	fewer than 50 cells in well	Tnf reporter intensity, replicate 1	Tnf reporter intensity, replicate 2
Jmjd8	0.18	enough cells in well	252	78.5
Cyb5r1	-1.06	enough cells in well	186	92.9
Gprin1		fewer than 50 cells per well; well left out of calls	98.1	71.8
Tdp1	2.77	enough cells in well	348	258
Npffr2	-0.73	enough cells in well	135	272
Pgrmc2	-0.46	enough cells in well	218	154
Dmc1	-0.21	enough cells in well	239	169
Vmn1r87	-0.99	enough cells in well	213	49.6
Cxcl2	-0.91	enough cells in well	124	250
Slc7a9	-0.07	enough cells in well	195	152
Zfp513	1.62	enough cells in well	190	196
Pbdc1	-0.73	enough cells in well	197	49.9
